In PMC4995097, “Talin-KANK1 interaction controls the recruitment of cortical microtubule stabilizing complexes to focal adhesions” (eLife, 2016):
These are yes or no findings as the source states them, for the method shown. Binding seen in cells or lysates may run through a third protein. Here binding means that the protein was enriched with, or labelled near, the bait; the list need not be complete. Tags and fused reporters may be left off the sequences shown.

Target: T1, BioGFP-tagged KANK1 (full-length) (human) (UniProt Q14678)
T1 sequence (chain, biotinylated on the Bio tag (by BirA)): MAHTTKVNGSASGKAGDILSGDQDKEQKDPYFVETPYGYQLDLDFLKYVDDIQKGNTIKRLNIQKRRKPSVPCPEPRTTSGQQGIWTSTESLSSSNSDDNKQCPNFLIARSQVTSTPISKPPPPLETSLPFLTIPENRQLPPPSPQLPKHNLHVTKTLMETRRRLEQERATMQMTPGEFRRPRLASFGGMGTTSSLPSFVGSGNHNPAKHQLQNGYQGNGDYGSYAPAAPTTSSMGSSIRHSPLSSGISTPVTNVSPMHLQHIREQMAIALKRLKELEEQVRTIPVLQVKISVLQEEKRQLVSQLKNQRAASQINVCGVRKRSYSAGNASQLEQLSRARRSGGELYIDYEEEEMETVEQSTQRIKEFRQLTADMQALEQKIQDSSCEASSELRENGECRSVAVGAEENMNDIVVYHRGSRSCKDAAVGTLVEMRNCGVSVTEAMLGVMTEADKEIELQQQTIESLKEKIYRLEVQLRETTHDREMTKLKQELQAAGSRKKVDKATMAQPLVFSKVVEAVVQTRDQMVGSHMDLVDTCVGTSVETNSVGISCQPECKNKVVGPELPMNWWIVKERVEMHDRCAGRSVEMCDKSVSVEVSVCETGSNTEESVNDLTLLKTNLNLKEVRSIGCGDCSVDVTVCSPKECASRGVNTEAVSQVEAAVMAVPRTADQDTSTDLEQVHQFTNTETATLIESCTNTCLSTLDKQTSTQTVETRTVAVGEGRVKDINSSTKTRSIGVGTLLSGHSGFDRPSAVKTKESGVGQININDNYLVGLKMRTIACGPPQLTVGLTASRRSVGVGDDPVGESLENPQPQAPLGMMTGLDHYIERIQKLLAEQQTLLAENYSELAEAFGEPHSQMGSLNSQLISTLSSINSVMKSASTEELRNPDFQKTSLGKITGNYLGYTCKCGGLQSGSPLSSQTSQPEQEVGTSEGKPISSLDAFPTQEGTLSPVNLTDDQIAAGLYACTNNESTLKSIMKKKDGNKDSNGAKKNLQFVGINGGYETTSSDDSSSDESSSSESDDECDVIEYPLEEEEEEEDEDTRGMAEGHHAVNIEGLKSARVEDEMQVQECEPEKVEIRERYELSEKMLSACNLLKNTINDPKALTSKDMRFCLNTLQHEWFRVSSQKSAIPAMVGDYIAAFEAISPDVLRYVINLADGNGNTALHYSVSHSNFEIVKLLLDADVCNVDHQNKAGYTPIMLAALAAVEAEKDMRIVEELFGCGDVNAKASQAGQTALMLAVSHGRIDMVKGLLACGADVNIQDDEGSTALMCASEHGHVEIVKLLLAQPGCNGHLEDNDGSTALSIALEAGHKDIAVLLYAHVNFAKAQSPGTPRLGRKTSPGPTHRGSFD
Assay: affinity purification with mass spectrometry; Bio-GFP-tagged KANK1 or its N- and C-terminal fragments co-expressed with biotin ligase BirA in HEK293T; streptavidin beads; endogenous preys found by nanoLC-MS/MS

B1: LL5β (endogenous, HEK293T) (protein, UniProt Q86SQ0 1-1253)
chain: MEEHSYIQKELDLQNGSLEEDSVVHSVENDSQNMMESLSPKKYSSSLRFKANGDYSGSYLTLSQPVPAKRSPSPLGTSVRSSPSLAKIQGSKQFSYDGTDKNIPMKPPTPLLNTTSSLSGYPLGRADFDHYTGRDSERALRLSEKPPYSKYSSRHKSHDNVYSLGGLEGRKASGSLLAMWNGSSLSDAGPPPISRSGAASMPSSPKQARKMSIQDSLALQPKLTRHKELASENINLRTRKYSSSSLSHMGAYSRSLPRLYRATENQLTPLSLPPRNSLGNSKRTKLGEKDLPHSVIDNDNYLNFSSLSSGALPYKTSASEGNPYVSSTLSVPASPRVARKMLLASTSSCASDDFDQASYVGTNPSHSLLAGESDRVFATRRNFSCGSVEFDEADLESLRQASGTPQPALRERKSSISSISGRDDLMDYHRRQREERLREQEMERLERQRLETILSLCAEYTKPDSRLSTGTTVEDVQKINKELEKLQLSDEESVFEEALMSPDTRYRCHRKDSLPDADLASCGSLSQSSASFFTPRSTRNDELLSDLTRTPPPPSSTFPKASSESSYLSILPKTPEGISEEQRSQELAAMEETRIVILNNLEELKQKIKDINDQMDESFRELDMECALLDGEQKSETTELMKEKEILDHLNRKIAELEKNIVGEKTKEKVKLDAEREKLERLQELYSEQKTQLDNCPESMREQLQQQLKRDADLLDVESKHFEDLEFQQLEHESRLDEEKENLTQQLLREVAEYQRNIVSRKEKISALKKQANHIVQQAQREQDHFVKEKNNLIMMLQREKENLCNLEKKYSSLSGGKGFPVNPNTLKEGYISVNEINEPCGNSTNLSPSTQFPADADAVATEPATAVLASQPQSKEHFRSLEERKKQHKEGLYLSDTLPRKKTTSSISPHFSSATMGRSITPKAHLPLGQSNSCGSVLPPSLAAMAKDSESRRMLRGYNHQQMSEGHRQKSEFYNRTASESNVYLNSFHYPDHSYKDQAFDTLSLDSSDSMETSISACSPDNISSASTSNIARIEEMERLLKQAHAEKTRLLESREREMEAKKRALEEEKRRREILEKRLQEETSQRQKLIEKEVKIRERQRAQARPLTRYLPVRKEDFDLRSHVETAGHNIDTCYHVSITEKTCRGFLIKMGGKIKTWKKRWFVFDRNKRTFSYYADKHETKLKGVIYFQAIEEVYYDHLKNANKSPNPLLTFSVKTHDRIYYMVAPSPEAMRIWMDVIVTGAEGYTHFLL
- binding: binds
